PubChem BioAssay AID493246, Drosophila RNAi Screening Center, 2011

- Purpose: 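Genes fly cells need to grow and stay alive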 (primary screen)
- Cell system: Drosophila Kc and S2R+ cells
- Knock-down reagent: long dsRNA against Drosophila genes
- Detection: 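Cell number per well after knock-down, printed as raw plate values; calls were based on per-plate z-scores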
- Direction: Kc cell number and S2R+ cell number: higher = more cells remaining
- Rule for the call: 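Counted as a hit if cell number falls by a z-score of at least 3 within its plate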
In all, the deposit lists about 21,000 reagents; shown is an unselected part of those with a known target gene and a result. In the full data, 429 (2%) got an active call. 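Values are raw and not normalised between plates; calls rest on per-plate z-scores that were not deposited.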 Entries without a mark were called inactive. Not given: the amount of reagent, the time to read-out.

{"target":"Cyp18a1","amplicon":"DRSC20235","Kc cell number, rep 1":1.50e6,"Kc cell number, rep 2":1.57e6,"S2R+ cell number, rep 1":1.01e6,"S2R+ cell number, rep 2":1.15e6}
{"target":"TotM","amplicon":"DRSC02355","Kc cell number, rep 1":1.65e6,"Kc cell number, rep 2":1.78e6,"S2R+ cell number, rep 1":1.25e6,"S2R+ cell number, rep 2":1.46e6}
{"target":"CG7029","amplicon":"DRSC16177","Kc cell number, rep 1":1.71e6,"Kc cell number, rep 2":1.65e6,"S2R+ cell number, rep 1":1.26e6,"S2R+ cell number, rep 2":1.26e6}
{"target":"esg","amplicon":"DRSC03530","Kc cell number, rep 1":1.69e6,"Kc cell number, rep 2":2.00e6,"S2R+ cell number, rep 1":1.20e6,"S2R+ cell number, rep 2":1.28e6}
{"target":"sphinx1","amplicon":"DRSC10993","Kc cell number, rep 1":1.53e6,"Kc cell number, rep 2":1.46e6,"S2R+ cell number, rep 1":1.23e6,"S2R+ cell number, rep 2":1.30e6}
{"target":"CG12898","amplicon":"DRSC06213","Kc cell number, rep 1":1.80e6,"Kc cell number, rep 2":1.81e6,"S2R+ cell number, rep 1":1.41e6,"S2R+ cell number, rep 2":1.59e6}
{"target":"pea","amplicon":"DRSC07120","Kc cell number, rep 1":1.20e6,"Kc cell number, rep 2":1.31e6,"S2R+ cell number, rep 1":8.96e5,"S2R+ cell number, rep 2":1.01e6}
{"target":"CG12486 (retired record)","amplicon":"DRSC09888","Kc cell number, rep 1":1.20e6,"Kc cell number, rep 2":1.42e6,"S2R+ cell number, rep 1":1.27e6,"S2R+ cell number, rep 2":1.39e6}
{"target":"Cap-D2","amplicon":"DRSC15401","Kc cell number, rep 1":5.25e5,"S2R+ cell number, rep 1":6.71e5}
{"target":"EMC5","amplicon":"DRSC02469","Kc cell number, rep 1":1.51e6,"Kc cell number, rep 2":1.59e6,"S2R+ cell number, rep 1":1.27e6,"S2R+ cell number, rep 2":3.32e5}
{"target":"pyr","amplicon":"DRSC06319","Kc cell number, rep 1":1.29e6,"Kc cell number, rep 2":1.46e6,"S2R+ cell number, rep 1":9.80e5,"S2R+ cell number, rep 2":1.09e6}
{"target":"st","amplicon":"DRSC11399","Kc cell number, rep 1":1.49e6,"Kc cell number, rep 2":1.64e6,"S2R+ cell number, rep 1":1.16e6,"S2R+ cell number, rep 2":1.21e6}
{"target":"CG10996","amplicon":"DRSC19363","Kc cell number, rep 1":1.56e6,"Kc cell number, rep 2":1.63e6,"S2R+ cell number, rep 1":1.07e6,"S2R+ cell number, rep 2":1.11e6}
{"target":"CG2076","amplicon":"DRSC19832","Kc cell number, rep 1":1.67e6,"Kc cell number, rep 2":1.53e6,"S2R+ cell number, rep 1":1.13e6,"S2R+ cell number, rep 2":1.16e6}
{"target":"Dip-C","amplicon":"DRSC15855","Kc cell number, rep 1":1.47e6,"Kc cell number, rep 2":1.54e6,"S2R+ cell number, rep 1":1.35e6,"S2R+ cell number, rep 2":1.39e6}
{"target":"CG13226","amplicon":"DRSC06346","Kc cell number, rep 1":1.51e6,"Kc cell number, rep 2":1.44e6,"S2R+ cell number, rep 1":1.15e6,"S2R+ cell number, rep 2":1.30e6}
{"target":"Cpr72Eb","amplicon":"DRSC09870","Kc cell number, rep 1":1.50e6,"Kc cell number, rep 2":1.78e6,"S2R+ cell number, rep 1":1.33e6,"S2R+ cell number, rep 2":1.48e6}
{"target":"CG4116","amplicon":"DRSC18348","Kc cell number, rep 1":1.49e6,"Kc cell number, rep 2":1.48e6,"S2R+ cell number, rep 1":1.05e6,"S2R+ cell number, rep 2":1.13e6}
{"target":"CG11145","amplicon":"DRSC06049","Kc cell number, rep 1":1.74e6,"Kc cell number, rep 2":1.92e6,"S2R+ cell number, rep 1":1.30e6,"S2R+ cell number, rep 2":1.49e6}
{"target":"CG16852","amplicon":"DRSC01876","Kc cell number, rep 1":1.49e6,"Kc cell number, rep 2":1.54e6,"S2R+ cell number, rep 1":1.24e6,"S2R+ cell number, rep 2":1.36e6}
{"target":"Pkc98E","amplicon":"DRSC16791","Kc cell number, rep 1":5.33e5,"S2R+ cell number, rep 1":8.09e5}

3 successive reagents already listed, quoted:
{"target":"CG12486 (retired record)","amplicon":"DRSC09888","Kc cell number, rep 1":1.20e6,"Kc cell number, rep 2":1.42e6,"S2R+ cell number, rep 1":1.27e6,"S2R+ cell number, rep 2":1.39e6}
{"target":"Cap-D2","amplicon":"DRSC15401","Kc cell number, rep 1":5.25e5,"S2R+ cell number, rep 1":6.71e5}
{"target":"EMC5","amplicon":"DRSC02469","Kc cell number, rep 1":1.51e6,"Kc cell number, rep 2":1.59e6,"S2R+ cell number, rep 1":1.27e6,"S2R+ cell number, rep 2":3.32e5}
